Here are results for four molecules from paper PMC12454907.

Experiment [1] concerns the target T1, GST-OsGF14c (rice (Oryza sativa)) (UniProt Q6ZKC0).
T1 sequence: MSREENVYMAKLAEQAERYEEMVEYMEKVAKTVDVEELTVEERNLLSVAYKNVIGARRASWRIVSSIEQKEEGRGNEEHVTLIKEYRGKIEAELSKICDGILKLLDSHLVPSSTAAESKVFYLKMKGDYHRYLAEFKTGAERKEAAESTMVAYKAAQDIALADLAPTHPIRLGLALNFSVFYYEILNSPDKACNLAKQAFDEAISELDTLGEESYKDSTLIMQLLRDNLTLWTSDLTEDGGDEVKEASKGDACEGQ
Nature of the experiment: pull-down; GST fusion or GST on glutathione agarose resin, induced His-OsSAP5 added, 2 h at 4°C, 25 mM Tris-HCl pH 8.0, 150 mM NaCl, 1/2,000 NP-40, 1/20 glycerol; blots with anti-His and anti-GST.

In experiment [2] the target is T2, OsGF14c-nLuc (rice (Oryza sativa)) (UniProt Q6ZKC0).
T2 sequence: T1 sequence
Nature of the experiment: split reporter; luciferase complementation imaging (LCI) in N. benthamiana leaves, 48 h after agroinfiltration, 1 mM luciferin, CCD imaging.

The target in experiment [3] is T3, OsGF14c in pSPYNE-35s (BiFC fusion) (rice (Oryza sativa)) (UniProt Q6ZKC0).
T3 sequence: T1 sequence
Nature of the experiment: split reporter; BiFC (split YFP, pSPYCE-35s and pSPYNE-35s) in N. benthamiana leaf epidermal cells, confocal microscopy.

The target in experiment [4] is T4, OsGF14c-GFP (rice (Oryza sativa)) (UniProt Q6ZKC0).
T4 sequence: T1 sequence
Nature of the experiment: co-IP; rice protoplasts co-transfected with p35s::OsGF14c-GFP and p35s::OsSAP5-HA, anti-GFP affinity beads 2 h at 4°C, blots with anti-HA and anti-GFP.

These are yes or no findings as the source states them, for the method shown. In cells and extracts the contact can be indirect. Some binding calls cover weakened binding; strength is not graded here. Sequences can lack the tags named with a protein.

B1: His-OsSAP5 (protein, UniProt Q6H754 1-154)
chain: MAEEQRWQEGCHRLCANNCGFFGSPATLDLCSKCYRDRQGRESTAPVVVAAAASACPATHPSSPSSSSCPAFLPSSTAAEAGVVVAAVAKASRCASCRKRVGLTGFACRCGGTFCGAHRYPERHACGFDFKAAGRDAIARANPLIKGDKLKDKI
With B1, in experiment [1], the binding result was “binds”.

B2: cLuc-OsSAP5 (protein, UniProt Q6H754 1-154)
chain: B1 chain
In the case of B2, the binding entry in experiment [2] is reported as “binds”.

B3: OsSAP5 in pSPYCE-35s (BiFC fusion) (protein, UniProt Q6H754 1-154)
chain: B1 chain
Regarding B3, the binding result in experiment [3] is listed as “binds”.

B4: OsSAP5-HA (protein, UniProt Q6H754 1-154)
chain: B1 chain
As for B4, in experiment [4], the binding result is recorded as “binds”.
